Some entries share one result that the patent states for a list of compounds.
Tested on: human intestinal Caco2-BBE (C2) cells
Assay: 14C-oxalate influx (oxalate transport) by Caco2-BBE (C2) cells
Assay type: cell-based
Procedure: Toward this end, Of culture conditioned medium (CM) was prepared as recently reported (Ref. 4; herein incorporated by reference in its entirety) and human intestinal Caco2-BBE (C2) cells were used to evaluate the effects of Of CM on intestinal oxalate transport. Apical oxalate uptake by C2 cells was measured by imposing an outward Cl gradient by removing extracellular Cl [Cli>Clo] (Refs. 3, 4, 14; incorporated by reference in their entireties) and measuring DIDS (anion exchange inhibitor)-sensitive influx of 14C-oxalate in exchange for intracellular Cl [i.e. apical Cl-oxalate exchange activity, ≥49% of which is mediated by the oxalate transporter SLC26A6 (A6) in C2 cells (4, 12))].
The inventors sought to identify trace elements to better stimulate oxalate transport by facilitating the binding of P8 and/or P9 to a cell surface receptor. The inventors analyzed combinations of P8 and P9 alone or with aluminum, zinc, or magnesium by measuring C14 oxalate transport in C2 cells.

Row | Sequence | stimulation of oxalate transport (14C-oxalate influx) by C2 cells, in words
1 | ARAQFNLGKTFYIGAGINKNTDKAVYWFIKAANQG [Peptide P5] | don't stimulate
2 | AYHNLGTAYYDGIGVDKNPHEAVRWWKKAAELG [Peptide P3] | don't stimulate
3 | EAQRRWALMLASGRGVAKNEGEALKWFKKAAVAGD [Peptide P11] | don't stimulate
4 | QYNLGVAYYYGRGIKKDFSEAVSWYKKSAE [Peptide P2] | don't stimulate
5 | ADAQNRLGIAYRYGTGVRKNPALSVKWLEKAAKQG [Peptide P1] | don't stimulate
6 | ESQNNLGALYNDGNGVDRDYQEAVFWYRKSALQGD [Peptide P6] | don't stimulate
